According to US20220002363A1, “COMPOSITIONS AND METHODS FOR TREATING PULMONARY DISEASE” (United States Government As Represented By The Department …, priority 2020, published 2022):
No constants are given. Whether binding was seen depends on the method and setting. Some binding calls cover weakened binding; strength is not graded here.

Amino acid sequences for entries named in this document (tags omitted). A change or cut given only in a name is not applied to a line headed by its entry. Chains listed by the source or under a name are the forms on record and can include a tag or linker. Residues count along the entry.
UniProt P25445, residues 17-173: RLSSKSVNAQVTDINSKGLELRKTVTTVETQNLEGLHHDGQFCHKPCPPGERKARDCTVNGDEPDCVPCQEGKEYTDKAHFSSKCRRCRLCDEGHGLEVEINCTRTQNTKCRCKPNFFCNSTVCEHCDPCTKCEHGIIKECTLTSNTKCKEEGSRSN
mut-sFasL (8-site mutated human sFasL, 8 charged amino acids of the stalk region changed to alanine) (P48023, form named): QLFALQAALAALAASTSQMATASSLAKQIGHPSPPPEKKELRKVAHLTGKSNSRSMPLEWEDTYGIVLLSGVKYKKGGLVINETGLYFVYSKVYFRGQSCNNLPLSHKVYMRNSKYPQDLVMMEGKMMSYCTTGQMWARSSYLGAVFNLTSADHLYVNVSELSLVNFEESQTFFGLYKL

How the values were obtained:
[1] = molecular target: recombinant human soluble Fas receptor (PeproTech) (human) (UniProt P25445); experiment: direct binding ELISA on wells coated with recombinant human Fas (5 ug/mL), detected with polyclonal anti-FasL antibodies
[2] = molecular target: recombinant human soluble Fas receptor (PeproTech) (human) (UniProt P25445); experiment: direct binding ELISA on wells coated with recombinant human soluble Fas (5 ug/ml), detected with polyclonal anti-human FasL antibodies; n=3

mut-sFasL (8-site mutated human sFasL, 8 charged amino acids of the stalk region changed to alanine) (from UniProt P48023 103-281) (ligand)
binding [1]: binds
binding [2]: binds
